Data from PubChem BioAssay AID330 (DTP/NCI, 2004).
The list is a part of this screen's results and no random one: it gathers tests that were run many times, whatever their T/C, doses with no T/C, and many T/C values between a quarter and a half above the control. Other doses and runs of a compound stand elsewhere. T/C: endpoint of the treated group in % of that of the vehicle group. Some entries give survivors of the animals treated and no T/C: the source files T/C as zero there, which appears to mark a toxic dose or a test without result, not a measured value. Some doses without a T/C left all or most animals alive at the check, yet need not have been tolerated: the source hardly ever lists a survival T/C far under the control, and the zero likely stands for such cases as well. Survivors were counted at the toxicity check, usually on the fifth day, unless a day is given; later deaths do not show. Schedules are NCI's codes, read here as Q, the interval in days (D) or hours (H), X, the number of doses. Signs of the kind (2×) stand for listed records that agree. For survival time, the PubChem record calls one and a half times the control and up active, and a quarter to a half above the control has no call in these data; cut-offs in other NCI protocols can differ.

System: P388 leukemia ip, CD2F1 mice, survival T/C
Assay: NCI In Vivo Anticancer Drug Screen. Data for tumor model P388 Leukemia (intraperitoneal) in CD2F1 (CDF1) mice
Details: T/C endpoint: median survival time, higher T/C = longer survival
[1] = dose: 400.0 mg/kg/injection, schedule: Q01DX009 (ip), vehicle: saline with Tween-80
[2] = dose: 25.0 mg/kg/injection, schedule: Q01DX009 (ip), vehicle: saline with Tween-80
[3] = dose: 240.0 mg/kg/injection, schedule: Q01DX005 (ip), vehicle: saline with Tween-80
[4] = dose: 120.0 mg/kg/injection, schedule: Q01DX005 (ip), vehicle: saline with Tween-80
[5] = dose: 200.0 mg/kg/injection, schedule: Q01DX009 (ip), vehicle: saline with Tween-80

In the case of `CC(C)CCCC(C)C1CCC2C3CC=C4CC(OC(=O)C56C=CC(=O)C5C5C=CC6CC5)CCC4(C)C3CCC12C` (stereo not drawn), the survivor count (dose: 6.25 mg/kg/injection, schedule: Q01DX005 (ip), vehicle: distilled water + Tween-80) is reported as 6 of 6, the survivor count (dose: 12.5 mg/kg/injection, schedule: Q01DX005 (ip), vehicle: distilled water + Tween-80) is reported as 6 of 6 and the survivor count (dose: 25.0 mg/kg/injection, schedule: Q01DX005 (ip), vehicle: distilled water + Tween-80) is reported as 6 of 6. For the same molecule, the survivor count (dose: 50.0 mg/kg/injection, schedule: Q01DX005 (ip), vehicle: distilled water + Tween-80) was 6 of 6 and the survivor count (dose: 100.0 mg/kg/injection, schedule: Q01DX005 (ip), vehicle: distilled water + Tween-80) was 6 of 6.

In the case of `[Cl][Pt+2][Cl].[NH-]c1nc2ccc(Br)cc2s1.[NH-]c1nc2ccc(Br)cc2s1`, the survivor count (dose: 400.0 mg/kg/injection, schedule: Q04DX002 (ip), vehicle: saline with Tween-80) is reported as 5 of 6.

For `Nc1nc2c(ncn2C2OC(CO)C(O)C2O)c(=O)[nH]1.[Cl-].[Cl-].[NH2-].[NH2-].[Pt+4]` (stereo not drawn), the T/C (dose: 2.0 mg/kg/injection, schedule: Q01DX009 (ip), vehicle: saline) was 126 % of control, the T/C (dose: 4.0 mg/kg/injection, schedule: Q01DX009 (ip), vehicle: saline) was 144 % of control and the T/C (dose: 32.0 mg/kg/injection, schedule: Q01DX009 (ip), vehicle: saline) was 128 % of control. The survivor count (dose: 64.0 mg/kg/injection, schedule: Q01DX009 (ip), vehicle: saline) was 6 of 6 (2×).

In the case of `N#CCCCCCBr`, the survivor count [1] is reported as 0 of 6.

For `CCC1([N+](=O)[O-])CN(C)CC2CCCCN2C1` (stereo not drawn), the survivor count (dose: 200.0 mg/kg/injection, schedule: Q04DX002 (ip), vehicle: saline) was 2 of 6 and the survivor count (dose: 400.0 mg/kg/injection, schedule: Q04DX002 (ip), vehicle: saline) was 0 of 6.

In the case of `Cc1cc(N(CC(C)Br)CC(C)Br)ccc1N=Nc1ccccc1C(=O)O` (stereo not drawn), the survivor count [2] is reported as 4 of 6 and the T/C (dose: 25.0 mg/kg/injection, schedule: Q01DX009 (oral), vehicle: saline with Tween-80) is reported as 130 % of control.

In the case of `O=CC=O`, the T/C (dose: 100.0 mg/kg/injection, schedule: Q01DX009 (ip), vehicle: saline with Tween-80) is reported as 135 % of control and the T/C (dose: 100.0 mg/kg/injection, schedule: Q01DX009 (ip), vehicle: saline) is reported as 131 % of control.

For `N#CC1(NC(=O)C(Cl)Cl)c2ccccc2-c2ccccc21`, the survivor count [3] was 6 of 6.

`COc1cc2[nH]c3cc(OC)c(OC)cc3c2cc1C` was tested, and the survivor count [4] was 6 of 6 and the survivor count [3] was 6 of 6.

For `CCC[As](CCC)SCC1OC(OC(C)=O)C(OC(C)=O)C(OC(C)=O)C1OC(C)=O` (stereo not drawn), the survivor count [5] was 6 of 6.

With `c1ccc2n[nH]nc2c1` the survivor count (dose: 400.0 mg/kg/injection, schedule: Q01DX001 (ip), vehicle: saline with Tween-80) was 0 of 6, the survivor count [1] was 0 of 6 and the survivor count (dose: 400.0 mg/kg/injection, schedule: Q04DX003 (ip), vehicle: saline with Tween-80) was 6 of 6.

For `COc1cccc2c1C(=O)c1c(O)c3c(c(O)c1C2=O)C[C@@](O)(C(C)=O)C[C@@H]3OC1CC(NC=O)C(O)C(C)O1` (stereo partly drawn), the T/C (dose: 6.25 mg/kg/injection, schedule: Q01DX009 (ip), vehicle: saline) was 134 % of control, the T/C (dose: 12.5 mg/kg/injection, schedule: Q01DX009 (ip), vehicle: saline) was 135 % of control and the T/C (dose: 25.0 mg/kg/injection, schedule: Q01DX009 (ip), vehicle: saline) was 144 % of control.

`O=C1c2[nH]cnc2N(Cc2ccc(Cl)cc2)C2=NCCN12` was tested, and the survivor count (dose: 200.0 mg/kg/injection, schedule: Q01DX005 (ip), vehicle: Klucel (hydroxypropylcellulose) (HPC)) was 2 of 5.

For `O=C(NC(=S)c1cccs1)Nc1ccccc1`, the survivor count [2] was 6 of 6.

`OCc1c(CO)c(C(F)(F)F)n2c1CCC2` was tested, and the survivor count (dose: 200.0 mg/kg/injection, schedule: Q01DX009 (ip), vehicle: Klucel (hydroxypropylcellulose) (HPC)) was 3 of 6.

`CC1=C(C#N)C(=N)OC1(C)C1CC(=O)C=CC1=O` (stereo not drawn) was tested, and the T/C (dose: 120.0 mg/kg/injection, schedule: Q01DX005 (ip), vehicle: suspension in saline) was 125 % of control and the T/C (dose: 240.0 mg/kg/injection, schedule: Q01DX005 (ip), vehicle: suspension in saline) was 126 % of control.

For `CCN(CC)CCOCc1ccc2c(c1)OCO2`, the survivor count (dose: 200.0 mg/kg/injection, schedule: Q01DX005 (ip), vehicle: saline with Tween-80) was 0 of 6.

`O=[N+]([O-])c1cccn2nnnc12` was tested, and the survivor count [5] was 6 of 6 and the survivor count [1] was 4 of 6.

In the case of `CN(C)CCC(=O)c1ccc2c(c1)OCO2`, the survivor count (dose: 240.0 mg/kg/injection, schedule: Q01DX005 (ip), vehicle: saline) is reported as 0 of 6.

In the case of `COc1cccc(/C=N\NC(=O)CNC(=O)Nc2ccc(Cl)c(Cl)c2)c1OC`, the survivor count (dose: 60.0 mg/kg/injection, schedule: Q01DX005 (ip), vehicle: saline with Tween-80) is reported as 6 of 6 and the survivor count [4] is reported as 6 of 6.
